{"source": "patent US11981953B2", "about": "“Method to screen compounds for antifungal activity and pharmaceutical compositions and methods to treat fungal diseases by inhibiting spore germination” (WISCONSIN ALUMNI RESEARCH FOUNDATION, priority 2018, dated 2024)", "key": {"[1]": {"tested_on": "Aspergillus Fumigatus (AF293)", "assay": "Aspergillus fumigatus MIC on conidia", "type": "cell-based", "conditions": "testing performed on conidia", "procedure": "Conidia at a final concentration of 2×10^4 cells were incubated in RPMI, 0.33 M MOPS, and 2% glucose at pH 7 at varying concentrations of inhibitors, with a final volume of 200 μL."}, "[2]": {"tested_on": "Cryptococcus neoformans spores (JEC20 x JEC21)", "assay": "Quantitative germination assay (microfluidic devices, cell size and shape)", "type": "cell-based", "conditions": "25 μg/mL", "procedure": "All germination assays are based on Barkal et al., 2016. Briefly, microfluidic devices were loaded with 1×10^5 spores, and at 0 hours, SD media with drug of interest, were added to the sample. Spores were allowed to germinated at 30° C. in a humidified chamber and cells were monitored every two (2) hours for 16 hours. Each assay was performed in two (2) individual wells with three (3) field of views acquired from each well. All images were analyzed as previously described based on cell shape and size. Population ratio of spores, intermediate, and yeast cells were determined. Error bars in plots are based on variation between all fields of view acquired. […] After the 16-hour experiment, samples were plated on YPD and allowed to grow at 30° C. to determine if drugs were completely germicidal or not based on lack of growth. If assays were unable to be performed in microfluidic devices, the […] spores were incubated in identical conditions outside of PDMS devices and only loaded into devices for image acquisition."}}, "note": "At least one structure is not confirmed: it was looked up by name or label, or the drawing left a doubt."}
{"smiles": "CCN(CC)C(=S)SSC(=S)N(CC)CC", "note": "[Disulfiram]", "values": [{"measurement": "Ability to inhibit Aspergillus fumigatus", "setting": "[1]", "result": "able to inhibit A. fumigatus"}, {"measurement": "Inhibition of spore germination", "setting": "[2]; 16 hours", "result": "weak inhibitor of germination"}, {"measurement": "Germicidal", "setting": "[2]; plated on YPD after the 16-hour experiment", "result": "Neither temsirolimus nor disulfiram were germicidal"}]}
